Laboratory results taken from PubChem BioAssay AID1259415 (National Center for Advancing Translational Sciences (NCATS), 2018).
Several values for one entry are separate records, joined by “and”; a condition that tells them apart may be missing. Equal values may be shown once. About 18,000 (4.4%) of roughly 410,000 compounds were called active. Inconclusive means that the source gave no clear call. Such entries were picked first, then a sample of the others. Cut-off read from the data, not from the text of the source: active = activity change below about -60%; inconclusive = no clear call, values can overlap the other calls; inactive = above about -39%.

Assay: qHTS Assay for inhibitors of the human cytomegalovirus (HCMV)
Details: HFF cells, HCMV-luciferase reporter, 72 h; at 57.5 µM; hits give low values
How it was run: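 Two-dose cell screen: HFF monolayers treated with compounds and infected with luciferase-expressing HCMV at 1 PFU/cell, 72 h at 37C, then lysed for luciferase measurement.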
% is set by controls: 0 for no effect and ±100 for the full control effect.

SMILES | activity change, negative = inhibition
CC(=O)c1ccc(N/N=C2/CCCNC2=O)cc1 | inactive: 95.7%
Cc1ccc2c(c1)N(C(=O)CCC(=O)Nc1ccccc1Cl)CC(C)O2 (stereo not drawn) | inactive: 6.86% and inactive: -14.3%
O=C(C=Cc1ccccn1)c1ccccc1O | active: -80%
CC(C)Oc1ccccc1OCCCOc1cccc2cccnc12 | inactive: -39.3%
O=C(c1cc2c(s1)CCCC2)n1cccn1 | inactive: 54.9%
Cc1ccc(C)c(CN2C(=O)c3ccccc3S(=O)c3ccc(C(=O)NCc4ccccc4Cl)cc32)c1 (stereo not drawn) | inactive: -27.1%
Cc1ccc(C(=O)NC(C)c2ccc(F)cc2)cc1 (stereo not drawn) | inconclusive: -41.6%
CCc1nc2ccccc2c(C(=O)OCC(=O)N(C)Cc2ccccc2)c1C | inconclusive: -40.3%
COC(=O)c1ccc(/C=N/NC(=O)CC(=O)NC2CCCCC2)cc1 | inconclusive: -42.9%
CCC1=Nc2cc(C(=O)NCc3ccco3)ccc2Sc2ccc(C)cc21 | active: -75.4%
CCN(CC)S(=O)(=O)c1ccc(S(=O)(=O)N2CCC(N3CCCCC3)CC2)cc1 | inconclusive: -57.3%
CCc1noc(C)c1C(=O)N1CCCSC1=Nc1ccccc1C(C)C | inconclusive: -42.5%
CCN(C(=O)COC(=O)c1cc(-c2ccc(C)o2)nc2ccccc12)C1CCS(=O)(=O)C1 (stereo not drawn) | inactive: -5.45%
COc1ccccc1NC(=S)NC1CCCCCCCCCCC1 | active: -61.3%
O=C(NCC1CCN(Cc2ccc(F)cc2)CC1)C1CCCN(c2ncnc3c2nc2n3CCCCC2)C1 (stereo not drawn) | active: -61.5%
c1ccc(Cc2nnc(Sc3ccccc3)c3ccccc23)cc1 | active: -88.3%
O=C(O)COc1ccccc1/C=N/NC(=O)CN1CCN(Cc2ccccc2Cl)CC1 | inconclusive: -40.2%
CCc1c(C)nc2c(-c3ccccc3)c(C)[nH]n2c1=O | inactive: -31.3%
Cc1ccc(NC(=S)Nc2cccnc2)c(S(=O)(=O)N2CCCCC2)c1 | active: -74.6%
Cc1cnc(NC2=NCCC2)s1 | inconclusive: -42.9%
O=C(Nc1cccc(NC(=O)c2ccco2)c1)c1ccc2c(c1)OCCO2 | inconclusive: -45.9%
CN(CCO)c1cc(Sc2nc3ccccc3s2)c2nonc2c1[N+](=O)[O-] | active: -104%

SMILES | activity change, negative = inhibition
Cc1cccc(-c2nc(SCC(=O)Nc3cc(C)on3)c3c(=O)n(C)c(=O)n(C)c3n2)c1 | inactive: -3.8%
Cc1ccc(C)c(S(=O)(=O)N2CCN(c3ncnc4sccc34)CC2)c1 | active: -96.6%
Cc1ccc(-c2nnc(N3CCCCC3)c3ccccc23)cc1S(=O)(=O)NCC1CCCO1 (stereo not drawn) | inconclusive: -59.6%
O=C(NNc1nc2ccccc2o1)c1ccccc1 | inactive: 18.2%
CCCCN(C)C(=O)C1CCN(Cc2cccc(OCc3ccccc3)c2)CC1 | inconclusive: -41.3%
COC(=O)c1c(NC(=O)c2cccc(OC)c2)sc2c1CCC(C(C)(C)C)C2 (stereo not drawn) | inconclusive: -43.6%
O=C(CSc1nc2ccccc2c(=O)n1CC1CCCCC1)N1CCOCC1 | inactive: -14.2%
CC(=O)Nc1ccc(S(=O)(=O)N2CCCN(S(=O)(=O)c3ccc(C)cc3)CC2)cc1 | inconclusive: -57.1%
O=C1c2cccc3c([N+](=O)[O-])ccc(c23)C(=O)N1Cc1cccnc1 | active: -73.4%
COc1cc2c(cc1OC)C(c1ccccc1F)OC(=O)C2 (stereo not drawn) | inactive: 33.3%
COc1cc(/C=N/NC(=O)c2ccccc2O)ccc1OC(=O)CC1SC(=O)NC1=O (stereo not drawn) | inactive: 3.91%
CCN(CC)S(=O)(=O)c1ccc2c(c1)N(CC(=O)NCCc1ccc(OC)c(OC)c1)C(=O)CO2 | inconclusive: 0%
C/C(CC1(O)C(=O)N(C)c2ccccc21)=N\O (stereo not drawn) | inconclusive: -42.6%
CCOC(=O)C1=CN(Cc2cccc(F)c2)S(=O)(=O)N(CC)C1c1ccc(F)c(Cl)c1 (stereo not drawn) | inconclusive: -47.1%
Cc1cc(C(=O)N/N=C/c2ccc([N+](=O)[O-])s2)n[nH]1 | active: -90.9%
CCOc1ccccc1NC(=O)c1cn(C2CCCC2)c(=O)c2c1c1ccccc1n2C | inconclusive: -53.3%
O=C(NNC1=C(C(=O)C(F)(F)F)CCC1)c1ccccc1Cl | inconclusive: -58.6%
CC(=O)OC(C)(C)/C=C/C(=O)C(C)(O)C1C(O)CC2(C)C3CC=C4C(CC(O)C(=O)C4(C)C)C3(C)C(=O)CC12C (stereo not drawn) | active: -97.8%
COc1ccccc1C(=O)Nc1ccc(OCC(=O)N2C(C)CCCC2C)cc1 (stereo not drawn) | inconclusive: -53.2%
CC1=C(C(=O)Nc2ccccc2C)C(c2cccnc2)n2nc(SCc3ccccc3)nc2N1 (stereo not drawn) | inactive: -4.24%
O=C1c2cccnc2-c2ncccc21 | inactive: -23.7%
Cc1ccc(-c2nc3ccccc3[nH]2)cc1NC(=O)/C=C/c1ccco1 | inactive: 71.8%

SMILES | activity change, negative = inhibition
O=C(Cc1cccc2ccccc12)NCC(=O)N1CCN(Cc2cccc(C(F)(F)F)c2)CC1 | active: -61.7%
O=C(Nc1ccccc1-c1ccccc1)C1CCC1 | inconclusive: -46%
COc1ccc(/C=N/n2c(SC)nnc2-c2ccccc2)c(OC)c1OC | inconclusive: -43.1%
Cc1ccc(CSc2nnc(-c3ccncc3)n2C)cc1 | inconclusive: -47.4%
COc1ccc(NS(=O)(=O)c2cc(NC(=O)c3cccs3)ccc2N2CCCC2)cc1 | active: -96.8%
Cc1ccc(CN2C(=O)C(O)(C3C(=O)N(C)c4ccccc43)c3ccccc32)cc1 (stereo not drawn) | inconclusive: -48.3%
S=c1[nH]nc(-c2ccco2)n1/N=C/C(Cl)=C/c1ccccc1 | inconclusive: -56.8%
O=C(CC1C(=O)NCCN1Cc1ccccc1C(F)(F)F)NC1CCCC1 (stereo not drawn) | inactive: 33.3%
COc1ccc(-c2cc(C(=O)N/N=C/c3cccnc3)c3cc(C)cc(C)c3n2)cc1 | inconclusive: -55%
O=C(CN1C(=O)C2CC=CCC2C1=O)NCC(=O)Nc1ccc(F)c(F)c1F (stereo not drawn) | inconclusive: -40.8%
COc1ccc(Cn2c(SCc3ccc(C(=O)NC4CCCCC4)cc3)nc3ccncc32)cc1 | inconclusive: -54.8%
C[C@]12C=CC(=O)C=C1CCC1C2CC[C@@]2(C)C1CCC21OCCO1 (stereo partly drawn) | inconclusive: -40.4%
CCn1c(SCC(=O)N/N=C\c2ccccc2OCC(=O)O)nnc1-c1ccc(Cl)cc1 | inconclusive: -49.1%
COc1ccccc1/C=C/C(=O)NCC(=O)N/N=C/c1ccccc1 | inactive: 1.81%
O=C(N/N=C/c1ccc(Br)s1)Nc1ccccc1 | inactive: -4.38%
COc1ccccc1N(CC(=O)N/N=C(\C)c1ccc(F)cc1)S(=O)(=O)c1ccccc1 | active: -101%
CN(c1ccccc1)S(=O)(=O)c1ccc(C(=O)N2CCN(c3ccccc3F)CC2)cc1 | inactive: -13.9%
Cn1ccnc1C(=O)Cc1ccc([N+](=O)[O-])cc1 | inactive: -13.2%
CSC(=NC#N)N1CCN(c2c(C)cccc2C)CC1 | inconclusive: -46%
CC1(CNC(=O)C(=O)NCC2(C)CO2)CO1 (stereo not drawn) | inconclusive: -59.4%
Cc1cc(=O)n2[nH]c(CCC(=O)O)nc2n1 | inconclusive: -42.5%
CCOc1ccc(/C=C2/C(=O)NC(=O)N(CCc3ccc(F)cc3)C2=O)cc1 | inconclusive: -42.9%

SMILES | activity change, negative = inhibition
CCn1c(SCC(=O)Nc2cc(OC)ccc2OC)nnc1C1CCCCC1 | inconclusive: -54.9%
Cc1ccccc1CNC(=O)Cn1nc(C)c2nn(-c3ccc(Cl)cc3)c(C)c2c1=O | inactive: -31.4%
O=S(=O)(c1cccc(Cl)c1)N1CCC(c2nc3ccccc3[nH]2)CC1 | inconclusive: -46.6%
O=C(Nc1cccc([N+](=O)[O-])c1)c1ccc2c(c1)OCCO2 | active: -107%
Cc1ccccc1NC(=O)Nc1nc(C2CCC(=O)N2)cs1 (stereo not drawn) | inactive: 2.91%
O=C(COc1nsnc1N1CCOCC1)Nc1ccc([N+](=O)[O-])cc1 | inactive: 55.5%
CCCc1nc(SCc2ccccn2)c2c(=O)n(C)c(=O)n(C)c2n1 | inconclusive: -48.1%
COc1ccc(CCNC(=O)c2sc3nc4n(c(=O)c3c2C)CCC4)cc1 | inconclusive: -49.2%
CCN1CCC[C@H]1CNCCCn1cnc2c(SC)ncnc21 | inconclusive: -45.9%
COc1ccc(CCN2CC(C(=O)NCc3nc(C)c(C)s3)CCC2=O)cc1 (stereo not drawn) | inactive: -1.75%
COc1ccc(/C=C/C(=O)NCc2c(C)nn(C)c2C)cc1COc1ccc(Br)cc1 | inconclusive: -46.1%
CCc1ccc(C(c2ccccc2)c2c(C)[nH]c3ccccc23)s1 (stereo not drawn) | active: -62%
COc1ccc(Cl)cc1C(=O)Nc1ccc2nc3n(c(=O)c2c1)CCCC3 | inconclusive: -45.2%
O=C(c1ccc(Cl)cc1)n1c(NCc2ccccc2)n[nH]c1=S | inconclusive: -54.8%
CSc1ccccc1C(=O)OCC(=O)N1CCCC1=O | inconclusive: -42.3%
COc1ccccc1-n1cnc2cc(NCc3ccco3)ccc21 | inconclusive: -48.9%
O=C(COC(=O)Cc1ccsc1)Nc1ccc(S(=O)(=O)N2CCOCC2)cc1 | inconclusive: -40.1%
CCC(=O)N1CCCC(C(=O)c2ccc(-c3ccccc3)cc2)C1 (stereo not drawn) | inactive: 23.2%
O=C(c1ccco1)N1N=C(c2ccccc2)CC1c1ccc2nccnc2c1 (stereo not drawn) | inactive: 9.31%
Cc1cc(NC(=O)c2ccccc2)ccc1NC(=O)c1ccccc1Cl | inactive: 39.4%
CN(C)S(=O)(=O)Oc1ccsc1C(=O)Nc1ccc(Cl)cc1 | inconclusive: -42.7%
COc1ccc(/C(O)=C2/C(=O)C(=O)N(CCCN(C)C)C2c2cccc(Cl)c2)cc1OC (stereo not drawn) | inconclusive: -42.9%

5 records drawn at random from the list so far:
SMILES | activity change, negative = inhibition
Cc1ccc(C)c(CN2C(=O)c3ccccc3S(=O)c3ccc(C(=O)NCc4ccccc4Cl)cc32)c1 (stereo not drawn) | inactive: -27.1%
O=C(c1ccc(Cl)cc1)n1c(NCc2ccccc2)n[nH]c1=S | inconclusive: -54.8%
COc1cc2c(cc1OC)C(c1ccccc1F)OC(=O)C2 (stereo not drawn) | inactive: 33.3%
Cc1ccc2c(c1)N(C(=O)CCC(=O)Nc1ccccc1Cl)CC(C)O2 (stereo not drawn) | inactive: 6.86% and inactive: -14.3%
CCN(CC)S(=O)(=O)c1ccc2c(c1)N(CC(=O)NCCc1ccc(OC)c(OC)c1)C(=O)CO2 | inconclusive: 0%
